Reference: PMC8034648, “Oligomeric complexes formed by Redβ single strand annealing protein in its different DNA bound states”
Negatives hold for the conditions tested. Where a protein sequence is shown, tags need not be part of it. Weaker means in comparison with the reference protein, sequence or condition of that experiment. For part of these data: The exact form of at least one protein or probe is not confirmed. For part of these data: At least one verdict rests on a figure or table, not on a statement of the authors.

How the values were obtained:
[1] = target: T1, Redβ single strand annealing protein (bacteriophage λ) (UniProt P03698); test: EMSA; conditions: EMSA: 10 uM Redβ, 50 uM nt DNA, 37 C, recombinant protein
T1 sequence: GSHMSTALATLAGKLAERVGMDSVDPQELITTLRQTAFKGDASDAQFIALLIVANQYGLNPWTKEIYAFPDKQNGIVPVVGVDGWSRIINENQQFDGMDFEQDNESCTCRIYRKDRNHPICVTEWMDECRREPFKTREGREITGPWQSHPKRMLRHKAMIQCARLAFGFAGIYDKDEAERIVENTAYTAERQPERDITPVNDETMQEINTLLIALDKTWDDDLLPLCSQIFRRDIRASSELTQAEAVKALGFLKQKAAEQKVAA

[2] = target: T1, Redβ single strand annealing protein (bacteriophage λ); test: native MS; conditions: SEC-MALS: PBS, complexes formed at 22 C, AUC: PBS 20 C, native MS: 50 mM ammonium acetate pH ~7, room temperature, 4 nt/monomer, recombinant protein

AAAATCGAGCTATGCA (double strand) [16mer annealed duplex]
binding result ([1]; strands added sequentially, PBS, only faint complex, in PBS, or 20 mM Tris-HCl pH 7.5/10 mM NaCl/10 mM MgCl2, or 50 mM ammonium acetate pH 7.0, label: 5'-Cy5, 5'-Cy3): binds more weakly

TTGCATATTTAAAACATGTTGAGCTACAGCACCAGATTCAGCAATTAAGCTCTAAGCCATCCGCAAAAATGACCTCTTATCAA / TTGATAAGAGGTCATTTTTGCGGATGGCTTAGAGCTTAATTGCTGAATCTGGTGCTGTAGCTCAACATGTTTTAAATATGCAATGAC [83-:87+]
binding result ([2]; pre-formed dsDNA, 1 uM Redβ): no binding

CCATCCGCAAAAATCGAGCTATGCAGGGCGATTCTGCTCTAAGCCATCCG / GCGGATGGCTTAGAGCAGAATCGCCCTGCATAGCTCGATTTTTGCGGATG [Cy5 50mer:Cy3 50mer (annealed sequentially or pre-formed)]
binding result ([1]; pre-annealed before adding Redβ, in PBS, or 20 mM Tris-HCl pH 7.5/10 mM NaCl/10 mM MgCl2, or 50 mM ammonium acetate pH …, label: 5'-Cy5 on strand 1, 5'-Cy3 on strand 2): no binding

AAAAAAAAAAAAAAAAAAAAAAAAAAAAAAAAAAAAAA [dA38]
binding result ([2]; 0.1 uM Redβ, single-stranded DNA): no binding

TTTTTTTTTTTTTTTTTTTTTTTTTTTTTTTTTTTTTT (double strand) [dT38:dA38]
binding result ([2]; pre-formed dsDNA, 1 uM Redβ, very small amount of 11-mer complex): binds more weakly

TTGATAAGAGGTCATTTTTGCGGATGGCTTAGAGCTTAATTGCTGAATCTGGTGCTGTAGCTCAACATGTTTTAAATATGCAA [83+]
binding result ([2]; 1 uM Redβ, single-stranded DNA): binds
